From the supplement of paper PMC11348887
The list shows a part of the results. Most entries show no effect beyond the scatter of the controls.

The compounds below were run on hPSC-derived cortical neurons (WA09) (assay: KCl-induced FOS+/EGR-1+ double-positive nuclei fraction z-score (KCl minus unstimulated); higher = stronger activity-induced IEG response). Conditions: 5 µM; treatment: days 7-14 after plating, readout day 21.

| Compound | KCl-induced FOS+/EGR-1+ double-positive nuclei fraction z-score |
| --- | --- |
| OC(CNCC(O)C1CCc2cc(F)ccc2O1)C1CCc2cc(F)ccc2O1 (centres undefined) [Nebivolol] | -1.4 |
| CCN(CC)CCCC(C)Nc1c2ccc(Cl)cc2nc2ccc(OC)cc12 (centres undefined) [Quinacrine 2HCl] | -1.51 |
| OCc1cc(C(O)CNCCCCCCOCCCCc2ccccc2)ccc1O (centres undefined) [Salmeterol Xinafoate] | -0.364 |
| CNC(=O)c1cc(Oc2ccc(NC(=O)Nc3ccc(Cl)c(C(F)(F)F)c3)cc2)ccn1 [Sorafenib] | -0.0926 |
